In article PMC12040169 (PLOS Biology, 2025):
The other results are listed elsewhere or left out.

Each molecule was assayed on T1, CTL2-GFP (C. trachomatis L2/434/Bu, GFP-expressing). Conditions: bulk GFP, single well; 28.5 h, 10 µM; inhibitor.
T1 construct: L2/434/Bu, GFP-expressing
Design: species or system HeLa; Intracellular C. trachomatis growth in HeLa cells, bulk GFP fluorescence relative to DMSO

Compound | % of control remaining [%]
O=C(O)CCC(NC(=O)c1ccc(I)cc1)C(=O)O (centres unmarked) [CBK087614] | 117.05
CCCCOc1ccc(S(=O)(=O)n2ccc3cc(N4CCNCC4)ccc32)cc1 [CBK001315C] | 42.6967
O=[N+]([O-])c1cccc(S(=O)(=O)NCCCn2ccnc2)c1 [CBK266676] | 98.7934
CC1=C(C(=O)OCC(C)C)C(c2ccc(C)cc2)N2C(=O)C(C)SC2=N1 (centres unmarked) [CBK091646] | 111.133
COc1ccc(C)cc1C1(CNC(=O)N2CCC(C)(O)C2)CCOCC1 (centres unmarked) [CBK305452] | 81.465
Cn1cc(CCNC(=O)Nc2ccc(N3CCCCC3)nc2)cn1 [CBK305656] | 88.5844
CCOC(=O)C1CCN(CCC(=O)Nc2ccc(F)c(F)c2)CC1 [CBK264252] | 106.415
CN(Cc1cnn(C)c1)C(=O)c1ccc(Cl)cc1Br [CBK305404] | 110.21
Cc1c(-c2csc(CC#N)n2)sc2ccccc12 [CBK020828] | 150.671
O=S(=O)(/N=C(/Nc1nccs1)c1ccccc1)c1cccs1 [CBK268709] | 161.131
Brc1ccc(OCc2ccccc2)c(CNCCN2CCOCC2)c1 [CBK278171C] | 100
CC(=O)c1cc(C(=O)N(C)CCOc2ccccc2)cs1 [CBK282560] | 129.085
Cc1ccc(C(=O)N(Cc2ccncc2)C2CCCCC2)cc1C [CBK085386] | 106.423
O=C(NCCc1nc2ccccc2[nH]1)c1cccc(Cl)c1 [CBK263514] | 114.466
COc1ccc(/C=C/C(=O)Nc2cc(S(N)(=O)=O)ccc2C)cc1 [CBK262651] | 100
COc1ccc(N2CCN(C(=O)CCC(=O)c3cccs3)CC2)cc1 [CBK091413] | 141.056
O=C(N[C@H]1CCN2C(=O)c3cc(-c4ccc5c(c4)OCO5)ccc3NC(=O)[C@H]12)C1CCCC1 [CBK289333] | 113.975
CCCc1cc(CNC(=O)C(C)n2ccnc2)on1 (centres unmarked) [CBK282046] | 111.583
COc1ccc([C@@]23CC[C@@H](NC(=O)Nc4ccc(Cl)c(F)c4)C[C@@H]2N(C(C)C)CC3)cc1OC [CBK056852T] | 81.5191
COc1ccc(S(=O)(=O)Nc2ccc(C(=O)O)cc2)cc1[N+](=O)[O-] [CBK266130] | 201.212
Cc1nc2n(n1)C(c1ccccn1)C1=C(CC(C)CC1=O)N2 (centres unmarked) [CBK288230] | 114.487
CCCc1ccc(-c2nccn2CCn2cc(C)nn2)o1 [CBK307688] | 87.9858
Cc1cccc(S(=O)(=O)Nc2cc(OCCN3CCOCC3)c3occc3c2)c1 [CBK067420C] | 121.328
CC(=O)Nc1ccc(-c2ccc(COC3CCN(C(=O)OC(C)(C)C)CC3)cc2)cc1 [CBK138215] | 51.2222
CSCC(CSC)OC(=O)Nc1ccc(Cl)cc1 [CBK086154] | 113.884
Cc1cc(C(=O)CSc2nc3cc(Cl)cnc3[nH]2)c(C)n1C1CC1 [CBK305867] | 112.721
O=C(c1cccnc1)N1CCN(C2CC(=O)N(c3ccc(F)cc3)C2=O)CC1 (centres unmarked) [CBK270049] | 142.306

Compound | % of control remaining [%]
Cc1nc(COC(=O)c2ccc(C#N)c(C)n2)cs1 [CBK297775] | 122.695
O=C(C(c1ccccc1)c1ccccc1)N1CCC2(CCNC2)C1 (centres unmarked) [CBK156729C] | 123.994
COc1ccc(C)cc1NC(=O)c1cnc2sc(C)cn2c1=O [CBK287714] | 119.203
Cc1ccc(NS(=O)(=O)c2c(Br)sc3ccnc(N4CCN(C)CC4)c23)cc1 [CBK034654C] | 92.8935
CC(=O)c1nnnn1C(C)(C)Cc1ccccc1 [CBK022088] | 96.8595
CC(C)(C)C1=CC2=NC3(CCCCCCCCCCC3)[C@@H]3C[C@@H](O)[C@@H](O)[C@@H]3N2O1 [CBK303254] | 98.8887
COc1ccc(C(C)C)cc1-c1cncc(N2CCCCC2CCO)n1 (centres unmarked) [CBK037897] | 114.077
COC(=O)c1cccn2cc(CN3CCOCC3(C)C)nc12 [CBK304879] | 84.0161
CC1CCCN(CC(C)NC(=O)Cn2cnc3ccc(F)cc3c2=O)C1 (centres unmarked) [CBK305953] | 122.382
Cc1cc(COc2nc3ccccc3nc2NCCCCO)no1 [CBK173985] | 128.463
O=C(c1c[nH]c2ccccc12)N1CCc2ccccc2C1 [CBK200331] | 106.916
O=C(N/N=C\c1cccs1)c1n[nH]c2c1CCCC2 [CBK261667] | 114.526
COc1ccc(-c2cc(Nc3ccccc3)ncn2)cc1 [CBK090911] | 121.577
CC1=CC[C@H]2COC(CN3CCOC3C(C)C)[C@@H]1C2 (some centres unmarked) [CBK019189] | 87.8633
Nc1ncc(-c2cc(C(F)(F)F)cc(C(F)(F)F)c2)nc1N1CCC[C@@H]1CO [CBK063501] | 136.691
CCOC(=O)c1sc(NC(=O)C2CCCCC2)nc1C [CBK057893] | 144.398
CCN1CC2(CCC1=O)CCN(c1ccnc(OC)c1C#N)CC2 [CBK307018] | 112.876
COc1ccc(OC)c(NS(=O)(=O)c2ccc(C(=O)O)cc2)c1 [CBK267603] | 109.608
Cc1ccc(C2CCCN2C(=O)c2ccc(=O)n(CC(=O)NC3CCCCC3)c2)cc1C (centres unmarked) [CBK285982] | 122.191
c1csc(CNc2nccnc2-c2ccoc2)c1 [CBK036599] | 165.396
CC(=O)N1CCC[C@H]2NC(=O)CNC(=O)C3(C/C=C/C[C@H]21)CCN(C(=O)c1ccon1)CC3 [CBK292057] | 102.273
Cc1ccc2c(C)c(C(=O)Nc3ccc(S(N)(=O)=O)cc3)oc2c1 [CBK267661] | 103.352
COc1ncccc1C(=O)N1CCc2ccccc21 [CBK200402] | 91.8561
O=C(O)CC(Cc1ccccc1)C(=O)Nc1ccc(F)cc1 (centres unmarked) [CBK286841] | 121.252
N#Cc1ccc(-c2cccs2)nc1SCC(=O)Nc1ccc([N+](=O)[O-])cc1 [CBK066850] | 125.232
Cc1ncccc1-c1csc(C2CCCO2)n1 (centres unmarked) [CBK304121] | 96.3103
CSc1ncc(Cl)c(C(=O)Nc2nnc(C)s2)n1 [CBK268920] | 117.332

Compound | % of control remaining [%]
CC(C)Oc1ccc(C(=O)C2=C(O)C(=O)N(Cc3cccnc3)C2c2ccncc2)cc1 (centres unmarked) [CBK264920] | 100
CCN(C(=O)Cn1c(C)cc(=O)c2ccccc21)C1CCOC(C)(C)C1 (centres unmarked) [CBK306797] | 124.318
O=C(Nc1cccnc1)C1CCN(C(=O)OCc2ccccc2)CC1 [CBK083187] | 119.347
O=C(c1cncnc1)N1CCCC2(CCN(C(=O)c3cc(F)c(F)cc3F)C2)C1 (centres unmarked) [CBK131564] | 71.7084
CN1CCC(N(C)C(=O)Nc2ccc3c(c2)OCCO3)C1 (centres unmarked) [CBK156008] | 71.4127
Cc1cc(C)n(CC(C)CNC(=O)Cc2csc(N3CCCC3=O)n2)n1 (centres unmarked) [CBK305624] | 76.1667
C[C@]12CN(C(=O)c3ccccc3)C[C@H]1NC(=O)c1ccccc1C2=O [CBK281657] | 109.754
CN(C)c1cccc(-c2cnc3[nH]c(=O)n(CCc4ccncc4)c3n2)c1 [CBK064628] | 170.818
O=C1NCCNC(=O)C2(C/C=C/COc3ccccc31)CCN(C(=O)c1ccc3[nH]nnc3c1)CC2 [CBK292000] | 141.865
CN(Cc1ccco1)C(=O)NC1CCCc2c1cnn2CCO (centres unmarked) [CBK306290] | 88.9058
O=c1[nH]c2ccccc2nc1-c1ccccc1 [CBK016193] | 123.604
Cc1c(C(=O)N2CCn3nc(CO)cc3C2)n(C)c2ccc(F)cc12 [CBK306552] | 81.0303
Cc1csc(C(Cc2ccsc2)NC(=O)CCn2ccnc2)n1 (centres unmarked) [CBK285391] | 115.239
Cn1ncc2c(=O)n(Cc3nc(C(C)(C)C)no3)cnc21 [CBK304906] | 66.8693
CC(C)S(=O)(=O)N1CC2CCCC(O)(c3cccc(F)c3)C2C1 (centres unmarked) [CBK283109] | 84.4859
CCC(C(=O)Nc1nccs1)N(C)Cc1n[nH]c2c1CCC2 (centres unmarked) [CBK307685] | 137.51
O=C(CCN1CCN(CCO)CC1)Nc1cccc(Br)c1 [CBK058502] | 136.166
COCc1cc(C[C@@H]2C[C@H](NS(C)(=O)=O)C2(C)C)no1 [CBK289252] | 110.874
N#Cc1cccc(Nc2cncc(-c3cccc(N)c3)n2)c1 [CBK065319] | 166.016
O=C(CSc1nc2ccccc2c2nc3ccccc3n12)Nc1ccc(Cl)cc1F [CBK268098] | 120.744
Cc1cc(C)cc(-c2nnc(SCCC(=O)NC(N)=O)o2)c1 [CBK295164] | 125.806
CN(Cc1ccccc1)c1ncc(-c2ccc(N3CCOCC3)cc2)n2ccnc12 [CBK091275] | 143.721
CN(C1=NS(=O)(=O)c2ccccc21)c1ccccc1C(=O)O [CBK287094] | 113.73
O=C1CC(C(=O)Nc2ccc3c(c2)OCO3)n2c(nc3ccccc32)N1 (centres unmarked) [CBK270177] | 127.773
CNCC(=O)N(CCc1cc(C(F)(F)F)cc(C(F)(F)F)c1)c1ccc2c(c1)OCO2 [CBK001038T] | 92.786
C[C@H]1[C@@H]2[C@@H](O)C([C@H](C)C(=O)N3CCCCC3)CC[C@@]2(C)CC[C@@H]1NC(=O)C1CC1 (some centres unmarked) [CBK289446] | 114.479

Three entries from above in a different format.

| Compound | % of control remaining [%] |
| --- | --- |
| O=C(Nc1cccnc1)C1CCN(C(=O)OCc2ccccc2)CC1 [CBK083187] | 119.347 |
| O=C(CCN1CCN(CCO)CC1)Nc1cccc(Br)c1 [CBK058502] | 136.166 |
| N#Cc1cccc(Nc2cncc(-c3cccc(N)c3)n2)c1 [CBK065319] | 166.016 |
